Article PMC2873905

Target: GST-fused intact C-terminal frog usherin (analogous to mouse usherin 5053-5193 aa) (frog)
Experiment: pull-down; GST-fused usherin fragments expressed in E. coli, incubated with mouse retinal lysate and glutathione sepharose beads for 2 hours at 4°C; washed three times with lysis buffer (50 mM Tris-HCl pH8.0, 150 mM NaCl, 0.5% TritonX-100, 5 mM EDTA, 1 mM DTT); whirlin detected by blot

B1: endogenous whirlin from mouse retinal lysate (protein, UniProt Q80VW5-3 1-907)
chain: MNAQLDGLSVSSSSTGSLGSAAAAAGGGGGAGLRLLSANVRQLHQALTALLSEPEREQFTHCLNAYHARRNVFDLVRTLRVLLDSPVKRRLLPMLRLVIPRSDQLLFDQYTAEGLYLPATTPYRQPAWAAPDGAGPGEVRLVSLRRAKAHEGLGFSIRGGSEHGVGIYVSLVEPGSLAEKEGLRVGDQILRVNDKSLARVTHAEAVKALKGSKKLVLSVYSAGRIPGGYVTNHIYTWVDPQGRSTSPPSSLPQPHGSTLRQREDDRRSTLHLLQSGDEKKVNLVLGDGRSLGLTIRGGAEYGLGIYITGVDPGSEAESSGLKVGDQILEVNGRSFLNILHDEAVKLLKSSRHLILTVKDVGRLPHARTTVDQTKWIASSRIGESVANSAGFPGDHTEEGTSKPGFYKGPAGSQVTLSSLGNQTRALLDDQARHLLTEQERATMMYYLAQYRGGTISVEAMVMALFELLNTHAKFSLLSEVRSIISPQDLDRFDHLVLRREIESMKARQPPGPGVGDTYSMVSYSDTGSSTGSHGTSTTVSSARNTLDLEGTGETTQGSTNALPDVSVDDVKSPSEDLPGIKPPPPPPPLAQGHDRLLGQPRKPGREDPAPLSSAAHSGIVFSAPRNRSPPPGTAPTPGPSSAQDSPSSPIYASISHANPSSRKPLDTHLALVNQHPIGPFPRVQSPPHLKSPPAETPGAGACLPPPSPSEHPDAVGANQHFVLVEVHRPDSEPDVNEVRALPQTRTASTLSQLSDSGQTLSEDSGVDAGETEASTSGRGRQTASAKNKNGKEQPRTERTAEGANKPPGLLEPTSTLVRVRKSAATLGIAIEGGANTRQPLPRIVTIQRGGSAHNCGQLKVGHVILEVNGQTLRGKEHKEAARIIAEAFKTKERDYIDFLVTEFNVML
binding: binds

Results are given in words; binding and its absence hold for the method and conditions named. In cells and extracts the contact can be indirect. Binding can be weak; no strength is given.
